Values from PubChem BioAssay AID1508597 (Cure First, 2020).
Screen: 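Knock-downs altering ovarian cancer cell survival with or without PARP inhibitor rucaparib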 (primary screen). System: human ovarian carcinoma lines grown from tumours: OCI-P5x (papillary serous) and OCI-C5x (clear cell). Knock-down reagent: siRNA pool against human genes, 1.25 pmol siRNA per well. Duration: 72 h or 96 h, depending on the cell culture. Challenge: rucaparib 20 µM (about IC30) or vehicle, present until read-out. Rucaparib or vehicle: Vehicle. Cell line: OCI-P5x (serous). Measured: 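Luminescent ATP-based viability assay read 72 or 96 h after transfection, depending on culture, given as normalised percent viability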. Reading the numbers: viability, normalised: higher = more viable cells remaining. Hit rule: 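Active when normalised viability falls below 80 percent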. Calls: active = viability under 80%; inactive = viability 80% or more.
Shown is an unselected part of the about 2,100 reagents, in one setting of the screen. 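Calls flag viability under 80% in either arm, not effects specific to rucaparib; the reference for percent is not stated.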 A number with no mark means an inactive call. Some reagents were tested in more than one well and are listed for each. Not stated in the record: the 100% reference.

| gene knocked down | PubChem SID | technical replicate | viability, normalised (%) |
| --- | --- | --- | --- |
| VAX2 | SID405526616 | 1 | 82.1 |
| VAX2 | SID405526616 | 2 | 101 |
| VAX2 | SID405526616 | 3 | 75.3 (active) |
| HDAC3 | SID405526841 | 1 | 64.4 (active) |
| HDAC3 | SID405526841 | 2 | 83.2 |
| HDAC3 | SID405526841 | 3 | 80.6 |
| MIS18BP1 | SID405528056 | 1 | 55.9 (active) |
| MIS18BP1 | SID405528056 | 2 | 89.5 |
| MIS18BP1 | SID405528056 | 3 | 138 |
| PDE8A | SID405526702 | 1 | 88.4 |
| PDE8A | SID405526702 | 2 | 97.5 |
| PDE8A | SID405526702 | 3 | 117 |
| PARP4 | SID405527113 | 1 | 55.2 (active) |
| PARP4 | SID405527113 | 1 | 89.5 |
| PARP4 | SID405527113 | 2 | 66.1 (active) |
| PARP4 | SID405527113 | 2 | 84.4 |
| PARP4 | SID405527113 | 3 | 85 |
| PARP4 | SID405527113 | 3 | 66.7 (active) |
| DDX49 | SID405528193 | 1 | 52.3 (active) |
| DDX49 | SID405528193 | 2 | 66.5 (active) |
| DDX49 | SID405528193 | 3 | 85.7 |
| MED6 | SID405526981 | 1 | 63 (active) |
| MED6 | SID405526981 | 2 | 87 |
| MED6 | SID405526981 | 3 | 61.6 (active) |
| CLDN17 | SID405528130 | 1 | 62.3 (active) |
| CLDN17 | SID405528130 | 2 | 69.3 (active) |
| CLDN17 | SID405528130 | 3 | 66.4 (active) |
| SMARCA1 | SID405527325 | 1 | 53.6 (active) |
| SMARCA1 | SID405527325 | 2 | 37.5 (active) |
| SMARCA1 | SID405527325 | 3 | 70.9 (active) |
| DDX60L | SID405528206 | 1 | 59.5 (active) |
| DDX60L | SID405528206 | 2 | 50.8 (active) |
| DDX60L | SID405528206 | 3 | 61.7 (active) |
| SCAF11 | SID405527294 | 1 | 58.5 (active) |
| SCAF11 | SID405527294 | 2 | 60.5 (active) |
| SCAF11 | SID405527294 | 3 | 72.6 (active) |
| SMARCC1 | SID405527332 | 1 | 54.7 (active) |
| SMARCC1 | SID405527332 | 2 | 67.8 (active) |
| SMARCC1 | SID405527332 | 3 | 66.4 (active) |
| GSK3A | SID405526830 | 1 | 88.6 |
| GSK3A | SID405526830 | 1 | 61.5 (active) |
| GSK3A | SID405526830 | 2 | 85.3 |
| GSK3A | SID405526830 | 2 | 51.3 (active) |
| GSK3A | SID405526830 | 3 | 70.6 (active) |
| GSK3A | SID405526830 | 3 | 75.8 (active) |
| SPHK2 | SID405527879 | 1 | 72.9 (active) |
| SPHK2 | SID405527879 | 2 | 88.1 |
| SPHK2 | SID405527879 | 3 | 69 (active) |
| MTRF1 | SID405527038 | 1 | 50.1 (active) |
| MTRF1 | SID405527038 | 2 | 39 (active) |
| MTRF1 | SID405527038 | 3 | 51.1 (active) |
| CDK5 | SID405527425 | 1 | 75.5 (active) |
| CDK5 | SID405527425 | 2 | 109 |
| CDK5 | SID405527425 | 3 | 82.8 |
| JMJD1C | SID405526915 | 1 | 73.4 (active) |
| JMJD1C | SID405526915 | 2 | 78.5 (active) |
| JMJD1C | SID405526915 | 3 | 41.9 (active) |
| CLCF1 | SID405528122 | 1 | 57.1 (active) |
| CLCF1 | SID405528122 | 2 | 48.3 (active) |
| CLCF1 | SID405528122 | 3 | 74.7 (active) |
| MBD2 | SID405526970 | 1 | 65 (active) |
| MBD2 | SID405526970 | 2 | 70.1 (active) |
| MBD2 | SID405526970 | 3 | 66.2 (active) |
| PKN1 | SID405526474 | 1 | 51.6 (active) |
| PKN1 | SID405526474 | 1 | 98.3 |
| PKN1 | SID405526474 | 1 | 111 |
| PKN1 | SID405526474 | 2 | 73.9 (active) |
| PKN1 | SID405526474 | 2 | 33.1 (active) |
| PKN1 | SID405526474 | 2 | 101 |
| PKN1 | SID405526474 | 3 | 67.2 (active) |
| PKN1 | SID405526474 | 3 | 101 |
| PKN1 | SID405526474 | 3 | 93.6 |
| TRRAP | SID405526389 | 1 | 67.9 (active) |
| TRRAP | SID405526389 | 1 | 84.6 |
| TRRAP | SID405526389 | 1 | 55.8 (active) |
| TRRAP | SID405526389 | 2 | 60.9 (active) |
| TRRAP | SID405526389 | 2 | 57.6 (active) |
| TRRAP | SID405526389 | 2 | 82.2 |
| TRRAP | SID405526389 | 3 | 59.5 (active) |
| TRRAP | SID405526389 | 3 | 84.1 |
| TRRAP | SID405526389 | 3 | 86.1 |

Reformatted: entries from further up.
{"gene knocked down": "PKN1", "PubChem SID": "SID405526474", "technical replicate": "1", "viability, normalised (%)": "51.6 (active)"}
{"gene knocked down": "PKN1", "PubChem SID": "SID405526474", "technical replicate": "1", "viability, normalised (%)": 98.3}
{"gene knocked down": "PKN1", "PubChem SID": "SID405526474", "technical replicate": "1", "viability, normalised (%)": 111}
